ChEMBL document CHEMBL4316593 (Eur J Med Chem, 2019)
Further values from the same series stand in other lists.

Columns and labels:
Type in all cases: cell-based
Conditions in all cases: U-87MG ATCC
[1] = Inhibition of RTK/PI3K/AKT/mTOR signaling in human U87 cells assessed as down regulation of ZNF703 gene expression at cytotoxic IC50 measured after 48 hrs relative to control
[2] = Inhibition of RTK/PI3K/AKT/mTOR signaling in human U87 cells assessed as down regulation of PLA2G15 gene expression at cytotoxic IC50 measured after 48 hrs relative to control
[3] = Inhibition of RTK/PI3K/AKT/mTOR signaling in human U87 cells assessed as down regulation of SLC7A8 gene expression at cytotoxic IC50 measured after 48 hrs relative to control
[4] = Inhibition of RTK/PI3K/AKT/mTOR signaling in human U87 cells assessed as down regulation of MAN2B2 gene expression at cytotoxic IC50 measured after 48 hrs relative to control
[5] = Inhibition of RTK/PI3K/AKT/mTOR signaling in human U87 cells assessed as down regulation of HSPA1B gene expression at cytotoxic IC50 measured after 48 hrs relative to control
[6] = Inhibition of RTK/PI3K/AKT/mTOR signaling in human U87 cells assessed as down regulation of VPS16 gene expression at cytotoxic IC50 measured after 48 hrs relative to control
[7] = Inhibition of RTK/PI3K/AKT/mTOR signaling in human U87 cells assessed as down regulation of CKB gene expression at cytotoxic IC50 measured after 48 hrs relative to control
[8] = Inhibition of RTK/PI3K/AKT/mTOR signaling in human U87 cells assessed as down regulation of HOXA9 gene expression at cytotoxic IC50 measured after 48 hrs relative to control
[9] = Inhibition of RTK/PI3K/AKT/mTOR signaling in human U87 cells assessed as down regulation of RNF115 gene expression at cytotoxic IC50 measured after 48 hrs relative to control
[10] = Inhibition of RTK/PI3K/AKT/mTOR signaling in human U87 cells assessed as down regulation of DYNLL2 gene expression at cytotoxic IC50 measured after 48 hrs relative to control
[11] = Inhibition of RTK/PI3K/AKT/mTOR signaling in human U87 cells assessed as down regulation of COPS5 gene expression at cytotoxic IC50 measured after 48 hrs relative to control
[12] = Inhibition of RTK/PI3K/AKT/mTOR signaling in human U87 cells assessed as down regulation of CCDC14 gene expression at cytotoxic IC50 measured after 48 hrs relative to control
[13] = Inhibition of RTK/PI3K/AKT/mTOR signaling in human U87 cells assessed as down regulation of POT1 gene expression at cytotoxic IC50 measured after 48 hrs relative to control
[14] = Inhibition of RTK/PI3K/AKT/mTOR signaling in human U87 cells assessed as down regulation of ANKRD13C gene expression at cytotoxic IC50 measured after 48 hrs relative to control
[15] = Inhibition of RTK/PI3K/AKT/mTOR signaling in human U87 cells assessed as down regulation of MSN gene expression at cytotoxic IC50 measured after 48 hrs relative to control
[16] = Inhibition of RTK/PI3K/AKT/mTOR signaling in human U87 cells assessed as down regulation of WBP1L gene expression at cytotoxic IC50 measured after 48 hrs relative to control
[17] = Inhibition of RTK/PI3K/AKT/mTOR signaling in human U87 cells assessed as down regulation of UHMK1 gene expression at cytotoxic IC50 measured after 48 hrs relative to control
[18] = Inhibition of RTK/PI3K/AKT/mTOR signaling in human U87 cells assessed as down regulation of ILF2 gene expression at cytotoxic IC50 measured after 48 hrs relative to control
[19] = Inhibition of RTK/PI3K/AKT/mTOR signaling in human U87 cells assessed as up regulation of WNT6 gene expression at cytotoxic IC50 measured after 48 hrs relative to control
[20] = Inhibition of RTK/PI3K/AKT/mTOR signaling in human U87 cells assessed as up regulation of SLCO4A1 gene expression at cytotoxic IC50 measured after 48 hrs relative to control
[21] = Inhibition of RTK/PI3K/AKT/mTOR signaling in human U87 cells assessed as up regulation of solute carrier family 17 member 5 gene expression at cytotoxic IC50 measured after 48 hrs relative to control
[22] = Inhibition of RTK/PI3K/AKT/mTOR signaling in human U87 cells assessed as up regulation of EMI domain containing 1 gene expression at cytotoxic IC50 measured after 48 hrs relative to control
[23] = Inhibition of RTK/PI3K/AKT/mTOR signaling in human U87 cells assessed as up regulation of protein phosphatase 1 regulatory subunit 13 like gene expression at cytotoxic IC50 measured after 48 hrs relative to control
[24] = Inhibition of RTK/PI3K/AKT/mTOR signaling in human U87 cells assessed as up regulation of septin 10 gene expression at cytotoxic IC50 measured after 48 hrs relative to control
[25] = Inhibition of RTK/PI3K/AKT/mTOR signaling in human U87 cells assessed as up regulation of GRAM domain containing 1B gene expression at cytotoxic IC50 measured after 48 hrs relative to control
[26] = Inhibition of RTK/PI3K/AKT/mTOR signaling in human U87 cells assessed as up regulation of LMBR1 domain containing 1 gene expression at cytotoxic IC50 measured after 48 hrs relative to control
[27] = Inhibition of RTK/PI3K/AKT/mTOR signaling in human U87 cells assessed as up regulation of RAB6A, member RAS oncogene family gene expression at cytotoxic IC50 measured after 48 hrs relative to control
[28] = Inhibition of RTK/PI3K/AKT/mTOR signaling in human U87 cells assessed as up regulation of BBX gene expression at cytotoxic IC50 measured after 48 hrs relative to control
[29] = Inhibition of RTK/PI3K/AKT/mTOR signaling in human U87 cells assessed as up regulation of CD109 gene expression at cytotoxic IC50 measured after 48 hrs relative to control
[30] = Inhibition of RTK/PI3K/AKT/mTOR signaling in human U87 cells assessed as up regulation of EIF2A gene expression at cytotoxic IC50 measured after 48 hrs relative to control
[31] = Inhibition of RTK/PI3K/AKT/mTOR signaling in human U87 cells assessed as up regulation of ATP9A gene expression at cytotoxic IC50 measured after 48 hrs relative to control
[32] = Inhibition of RTK/PI3K/AKT/mTOR signaling in human U87 cells assessed as up regulation of SHC1 gene expression at cytotoxic IC50 measured after 48 hrs relative to control

CC(=O)C(=NNc1ccccc1C#N)C(C)=O
log2FC [1]: -2.02 | log2FC [2]: -1.58 | log2FC [3]: -1.18 | log2FC [4]: -1.11 | log2FC [5]: -4.16 | log2FC [6]: -0.858 | log2FC [7]: -0.855 | log2FC [8]: -0.844 | log2FC [9]: -0.794 | log2FC [10]: -0.762 | log2FC [11]: -0.755 | log2FC [12]: -0.716 | log2FC [13]: -0.696 | log2FC [14]: -0.602 | log2FC [15]: -0.514 | log2FC [16]: -0.509 | log2FC [17]: -0.481 | log2FC [18]: -0.467 | log2FC [19]: 2.19 | log2FC [20]: 2.13 | log2FC [21]: 1.26 | log2FC [22]: 1.09 | log2FC [23]: 1.03 | log2FC [24]: 0.938 | log2FC [25]: 0.817 | log2FC [26]: 0.799 | log2FC [27]: 0.688 | log2FC [28]: 0.581 | log2FC [29]: 0.57 | log2FC [30]: 0.554 | log2FC [31]: 0.53 | log2FC [32]: 0.52
